Experimental findings from PubChem BioAssay AID720554 (ICCB-Longwood Screening Facility, Harvard Medical School, 2013) are described below.

Some of the results follow.

A short description of this assay: BmaI1 acyl-homoserine lactone synthase inhibition – biochemical, fluorescence intensity, with counterscreen (AID 720554). The conditions noted are these: BmaI1 enzyme assay, measured here: counterscreen fluorescence % control, concentration not given here.
The compound `Cc1ccc(C(=O)NCC2(N(C)C)CCCCC2)o1` gave an inhibition of 3.5%.

The compound `Cc1cnc(C(=O)NCC2(N3CCCCC3)CCCCC2)cn1` had an inhibition of 10.5%.

The compound `O=C(NCC1(N2CCOCC2)CCCCC1)c1ccc2nc[nH]c2c1` showed an inhibition of 10.5%.

Take `CN(C)c1ccc(C(=O)NCC2(N3CCCCC3)CCCCC2)cc1`: the inhibition is 11.5%.

`O=C(NCC1(N2CCOCC2)CCCCC1)c1cc2ccccc2cc1O` showed an inhibition of 5%.

The term inhibition denotes the relative decrease from the control value, in per cent. A high value points to a response far below the control.
